Read-outs that look alike come from different tables or passages of the source. No constants are given. Whether binding was seen depends on the method and setting. Binding seen in cells or lysates may run through a third protein. Some results given as binding are weak or reduced against the parent protein; the word gives no strength. For some of these results: Where a sequence is shown, tags or fusion partners need not be part of it.
Key:
[1] = target: StrepTag-VAMP-2 (Bos taurus) (UniProt P63026)
[2] = target: T1, MBP-CeCav (C. elegans) (UniProt Q94051)
T1 sequence: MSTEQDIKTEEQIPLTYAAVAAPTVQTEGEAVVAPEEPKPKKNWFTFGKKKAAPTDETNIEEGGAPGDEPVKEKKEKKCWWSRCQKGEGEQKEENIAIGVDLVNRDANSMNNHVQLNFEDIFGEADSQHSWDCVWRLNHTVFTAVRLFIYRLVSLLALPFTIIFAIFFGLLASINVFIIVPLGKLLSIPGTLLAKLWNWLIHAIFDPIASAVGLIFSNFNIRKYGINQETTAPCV

Chains of the proteins cited; added tags and fusions are not shown.
UniProt P63026: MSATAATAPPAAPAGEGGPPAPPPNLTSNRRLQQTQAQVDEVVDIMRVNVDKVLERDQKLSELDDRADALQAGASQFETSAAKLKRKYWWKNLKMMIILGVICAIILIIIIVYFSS
UniProt P60881: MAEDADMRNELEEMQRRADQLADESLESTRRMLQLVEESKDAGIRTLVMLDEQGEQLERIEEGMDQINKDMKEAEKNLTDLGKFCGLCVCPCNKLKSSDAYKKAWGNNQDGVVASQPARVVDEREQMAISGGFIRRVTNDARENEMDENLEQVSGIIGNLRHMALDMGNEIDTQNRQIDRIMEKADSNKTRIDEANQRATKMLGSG

[3] = target: T1, MBP-CeCav (C. elegans); remark: listed apart in the source

With CBP-SNAP-25 (from UniProt P60881 1-206) the binding [1] was “binds” and the binding [2] was “binds”.
In the case of “Munc-18a-FLAG (from UniProt P61765 1-594)”, the binding [3] is reported as “no binding”.
“StrepTag-VAMP-2 (from UniProt P63026 1-116)” was tested, and the binding [2] was “no binding”.

Source: article PMC10011478
